Our source for the binding values is publication PMC7029496.

These are yes or no findings as the source states them, for the method shown. A result given as binding can be weak or reduced; the word gives no strength. Sequences can lack the tags named with a protein.

Experiment [1] deals with T1, XC_1359 (PilU), bacterial two-hybrid fusion (Xanthomonas campestris pv. campestris strain 8004) (UniProt Q8P759).
T1 sequence: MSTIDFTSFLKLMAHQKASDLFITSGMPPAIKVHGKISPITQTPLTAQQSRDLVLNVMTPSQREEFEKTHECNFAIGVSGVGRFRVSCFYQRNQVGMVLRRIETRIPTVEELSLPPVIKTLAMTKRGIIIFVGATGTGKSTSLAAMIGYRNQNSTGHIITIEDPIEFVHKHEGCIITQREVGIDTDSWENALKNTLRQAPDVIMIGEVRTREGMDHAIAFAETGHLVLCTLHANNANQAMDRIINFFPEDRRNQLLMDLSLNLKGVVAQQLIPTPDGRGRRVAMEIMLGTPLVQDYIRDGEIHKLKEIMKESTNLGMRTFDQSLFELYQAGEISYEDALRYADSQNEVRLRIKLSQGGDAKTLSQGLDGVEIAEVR
Kind of experiment: two-hybrid; BacterioMatch II bacterial two-hybrid in E. coli XL1-Blue MRF′; pilG and pilH in pTRG (prey), fliN in pBT (bait); growth on double-selective plates with 5 mM 3-AT and 12.5 μg/ml streptomycin.

The target in experiment [2] is T2, XC_4031 (PhoP), bacterial two-hybrid fusion (Xanthomonas campestris pv. campestris strain 8004) (UniProt Q7CLM6).
T2 sequence: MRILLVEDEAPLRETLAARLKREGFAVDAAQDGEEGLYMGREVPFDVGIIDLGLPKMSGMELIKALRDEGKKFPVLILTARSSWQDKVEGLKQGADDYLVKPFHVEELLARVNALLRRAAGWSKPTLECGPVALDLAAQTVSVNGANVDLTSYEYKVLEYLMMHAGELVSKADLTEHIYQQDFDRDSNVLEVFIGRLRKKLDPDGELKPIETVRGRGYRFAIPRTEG
The experiment is described as above.

Consider “PilG, bacterial two-hybrid fusion from pTRGpilG”, for which, in experiment [1], the binding result is recorded as “binds”.

Consider “PilH, bacterial two-hybrid fusion from pTRGpilH”, for which the binding result in experiment [2] is “binds”.
